In patent US11639494B2, “Culture medium” (Vitrolife Sweden AB, priority 2015, dated 2023):

System: glutathione (GSH)
Assay: BSO/MCB probe dosage optimisation and verification of MCB specificity to glutathione
Assay type: cell-based, mice
Procedure: Embryos were cultured in groups of 10 in 20 ul drops of media under paraffin oil (Ovoil, Vitrolife) in 6% CO2, 20% O2 74% N2 at 37° C. in a humidified multi gas incubator (Sanyo MCOK-5M[RC], Japan). Half of the embryos were allocated to the control group and the other half to the treatment group. Control group embryos were cultured in G-1™ medium (G-1™ with HSA-Solution™, Vitrolife) […]. Treatment group embryos were likewise cultured with the optimal triple antioxidant dose supplemented in the G-1™ medium (as determined in Example 2).
Immediately after collection, pronucleate control embryos were incubated in G-1™ medium spiked with BSO at doses of 0, 50, 100, 200, 400, 800, 1600 μM for 4 hours at 6% CO2, 20% O2 74% N2 at 37° C. Embryos were rinsed thoroughly in G-1™ with HSA-Solution™ media and placed individually in 2 μl drops of GMOPS with HSA-Solution™ (G-MOPS™ Plus, Vitrolife AB, Sweden) made on glass bottom dishes (Fluorodish, Coherent Scientific, Australia) and overlayed with paraffin oil (Ovoil, Vitrolife) for fluorescence imaging. Optimal dosage was determined by recording the fluorescence at 360±40 nm/460±40 nm excitation/emission wavelengths under a fluorescence microscope (Nikon Eclipse TS100). Results were calculated by subtracting the values of blank (embryos with no BSO exposure) and basal levels of the culture media from the fluorescence recorded. […]

SMILES | Optimal probe dose (4 hours in G-1 medium) [µM] | Optimal probe dose (15 minutes in G-1 medium) [μM/ml]
CCCCS(=N)(=O)CCC(N)C(=O)O (centres unmarked) [BSO, buthionine sulfoximine] | 200 | 
Cc1c(C)n2c(CCl)c(C)c(=O)n2c1=O [MCB, monochlorobimane] |  | 10
